No constants are given. Whether binding was seen depends on the method and setting. In cells and extracts the contact can be indirect. Some results given as binding are weak or reduced against the parent protein; the word gives no strength.
Target: Strep-tagged HoxF, subunit of the diaphorase moiety of the NAD+-reducing soluble [NiFe]-hydrogenase (SH) of Ralstonia eutropha H16 (Ralstonia eutropha H16) (UniProt P22317)
Assay: pull-down + SEC; Strep-tagged HoxF captured from the soluble extract of R. eutropha HF424(pGE553) on a Strep-Tactin Superflow column, eluted with 5 mM desthiobiotin, then gel filtration on Superdex 200; 50 mM Tris-HCl, 150 mM KCl, 5% glycerol, pH 8.0; read by SDS-PAGE with Coomassie blue and peptide mass fingerprinting

Chains of the proteins cited; added tags and fusions are not shown.
UniProt P22317: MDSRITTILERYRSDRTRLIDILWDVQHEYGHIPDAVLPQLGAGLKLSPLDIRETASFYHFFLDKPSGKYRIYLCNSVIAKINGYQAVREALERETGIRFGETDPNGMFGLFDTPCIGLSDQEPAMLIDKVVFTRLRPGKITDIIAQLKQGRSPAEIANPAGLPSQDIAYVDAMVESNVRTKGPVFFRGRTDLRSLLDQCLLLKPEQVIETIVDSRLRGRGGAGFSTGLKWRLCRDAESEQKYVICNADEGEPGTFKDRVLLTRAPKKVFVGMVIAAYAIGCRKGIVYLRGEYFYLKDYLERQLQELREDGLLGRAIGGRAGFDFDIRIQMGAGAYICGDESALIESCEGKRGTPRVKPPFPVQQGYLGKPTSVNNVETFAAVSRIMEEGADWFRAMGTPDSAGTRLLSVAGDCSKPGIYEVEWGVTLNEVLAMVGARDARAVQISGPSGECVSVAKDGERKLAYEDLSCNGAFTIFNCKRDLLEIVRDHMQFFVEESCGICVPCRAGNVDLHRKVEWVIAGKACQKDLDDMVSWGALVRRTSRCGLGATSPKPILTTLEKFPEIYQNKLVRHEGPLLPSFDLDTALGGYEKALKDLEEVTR
UniProt P22318: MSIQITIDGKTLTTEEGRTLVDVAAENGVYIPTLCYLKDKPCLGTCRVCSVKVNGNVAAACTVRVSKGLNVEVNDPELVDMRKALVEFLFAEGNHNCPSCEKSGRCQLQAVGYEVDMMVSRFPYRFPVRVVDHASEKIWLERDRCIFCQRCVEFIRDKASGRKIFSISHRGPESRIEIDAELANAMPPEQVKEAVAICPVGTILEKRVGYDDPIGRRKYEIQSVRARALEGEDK

With “HoxU, subunit of the diaphorase moiety of the NAD+-reducing soluble [NiFe]-hydrogenase (SH) of Ralstonia eutropha H16 (from UniProt P22318 1-234)” the binding was “binds”.

Source: article PMC3189943, “Catalytic Properties of the Isolated Diaphorase Fragment of the NAD^+-Reducing [NiFe]-Hydrogenase from Ralstonia eutropha” (PLoS ONE, 2011)
